From ChEMBL document CHEMBL4513134, “CO-ADD screening of University of Queensland (Australia) compounds” (2021)
The other results are listed elsewhere or left out. Measured potencies and affinities stand elsewhere.

Tested on: Pseudomonas aeruginosa
Settings: Concentration 32 ug.mL-1; ASSAY_TEST Inhibition of Bacterial Growth; detection method Absorption (OD600); MEDIA CAMHB; plate type 384well; NBS; CORNING #3640; time 18 hr

Structure (SMILES)	Inhibition
Cn1c([N+](=O)[O-])cnc1C(=O)N1CCCC1	0.93%
Cn1c([N+](=O)[O-])cnc1C(=O)NCc1ccc(OC(F)(F)F)cc1	3.77%
Cn1c([N+](=O)[O-])cnc1C(=O)N1CCOCC1	2.73%
Cn1c([N+](=O)[O-])cnc1C(=O)NCc1cccc(OC(F)(F)F)c1	0.64%
Cn1c([N+](=O)[O-])cnc1C(=O)NCc1ccc(F)cc1	3.14%
Cn1c([N+](=O)[O-])cnc1C(=O)NCc1ccccn1.O=C(O)C(F)(F)F	3.74%
CC(NC(=O)c1ncc([N+](=O)[O-])n1C)c1ccc(F)cc1 (stereo not given)	0.55%
Cn1c([N+](=O)[O-])cnc1C(=O)NC1CC1	-8.74%
Cc1ccc(CCNC(=O)c2ncc([N+](=O)[O-])n2C)cc1	7.68%
CN(C)C(=O)c1ncc([N+](=O)[O-])n1C	3.82%
